The text below walks through data of the supplement of paper PMC10735217.

Where a name gives a salt, the structure may show the parent alone. The list shows a part of the results. Repeats in this data set agree poorly, so a single value says little.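 The human kidney-derived cells carry a stably integrated construct of eight TEAD-binding elements driving luciferase, read by luminescence in a drug-repurposing library screen. A compound counts as a hit when its signal is more than five robust Z scores above the plate mean.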

The test system of the assay is HEK293A TEAD-LUC reporter. Put plainly: TEAD-luciferase reporter activity (YAP activation), robust Z score vs plate; higher = stronger YAP/TEAD activation. The following applies: 24 h.

As for `Cc1c(N2C(=O)[C@@H]3[C@H](O)CCN3C2=O)ccc(C#N)c1Cl`, the TEAD-luciferase reporter activity is inactive: 1.64 (compound concentration: 200 nM), inactive: -1.99 (compound concentration: 2 uM) and inactive: 0.0664 (compound concentration: 10 uM).

Consider `C[N+]1(C)C2CCC1CC(OC(=O)C(CO)c1ccccc1)C2` (stereo unspecified) [Atropine methyl bromide], for which the TEAD-luciferase reporter activity reads like this: (compound concentration: 200 nM) inactive: 0.122; (compound concentration: 10 uM) active: 7.42.

In the case of `C[N+]1(C)C2CCC1CC(OC(=O)C(CO)c1ccccc1)C2` (stereo unspecified), under “compound concentration: 2 uM”, the TEAD-luciferase reporter activity was inactive: -1.25.

With `O=C(C1CCCN1C(=O)c1ccc(F)cc1)N1CCC(N2Cc3ccccc3C2=O)CC1` (stereo unspecified), the TEAD-luciferase reporter activity (compound concentration: 200 nM) is inactive: 0.703 and the TEAD-luciferase reporter activity (compound concentration: 10 uM) was active: 7.79.

In the case of `COc1ccc(CC(C)NCC(O)c2ccc(O)c(CO)c2)cc1` (stereo unspecified), the TEAD-luciferase reporter activity reads like this: (compound concentration: 200 nM) inactive: -0.124; (compound concentration: 2 uM) inactive: 2.48; (compound concentration: 10 uM) inactive: 1.14.

For the compound `Cc1cc2c3c(c1)C(c1ccccc1)=NC(NC(=O)c1ccncc1)C(=O)N3CC2` (stereo unspecified), the TEAD-luciferase reporter activity was inactive: 0.0322 (compound concentration: 200 nM), inactive: -0.505 (compound concentration: 2 uM) and inactive: -0.166 (compound concentration: 10 uM).

For `CC(C)C[C@H]1C(=O)N2CCC[C@H]2[C@]2(O)O[C@](NC(=O)[C@@H]3C=C4c5cccc6[nH]c(Br)c(c56)CC4N(C)C3)(C(C)C)C(=O)N12` (stereo partly specified) [bromocriptine mesylate], the TEAD-luciferase reporter activity was inactive: -0.314 (compound concentration: 200 nM), inactive: -1.18 (compound concentration: 2 uM) and inactive: -1.73 (compound concentration: 10 uM).

Turning to `Cc1ccc(/N=C/N(C)/C=N/c2ccc(C)cc2C)c(C)c1` [Amitraz], the TEAD-luciferase reporter activity reads like this: (compound concentration: 200 nM) inactive: -0.906; (compound concentration: 2 uM) inactive: 1.76; (compound concentration: 10 uM) inactive: -0.613.

For `CN(C)C1CC(c2ccc(Cl)c(Cl)c2)c2ccccc21` (stereo unspecified), the TEAD-luciferase reporter activity reads like this: (compound concentration: 200 nM) inactive: -0.604; (compound concentration: 2 uM) inactive: -1.7; (compound concentration: 10 uM) inactive: -0.861.

As to `CCOC(=O)Nc1ccc(NCc2ccc(F)cc2)cc1N` [ezogabine], the TEAD-luciferase reporter activity (compound concentration: 200 nM) is inactive: -1.18, the TEAD-luciferase reporter activity (compound concentration: 2 uM) is inactive: 1.21 and the TEAD-luciferase reporter activity (compound concentration: 10 uM) was active: 9.15.

On to `C[C@]12CC[C@H](O)C[C@@H]1CC[C@@H]1[C@@H]2CC[C@]2(C)C(=O)CC[C@@H]12`, for which the TEAD-luciferase reporter activity runs as follows: (compound concentration: 200 nM) inactive: -0.537; (compound concentration: 2 uM) inactive: -0.22; (compound concentration: 10 uM) inactive: -0.903.

`CC(O)(CNC(=O)C(F)(F)F)C(=O)Nc1ccc([N+](=O)[O-])c(C(F)(F)F)c1` (stereo unspecified): the TEAD-luciferase reporter activity is, setting by setting: (compound concentration: 200 nM) inactive: -1.29; (compound concentration: 2 uM) inactive: -1.12; (compound concentration: 10 uM) inactive: 1.4.

In the case of `N#CCCN` [3-Aminopropionitrile fumarate], the TEAD-luciferase reporter activity was inactive: -0.793 (compound concentration: 200 nM) and inactive: 1.94 (compound concentration: 10 uM).

As to `N#CCCN` [Beta-aminopropionitrile], the TEAD-luciferase reporter activity (compound concentration: 2 uM) was inactive: 0.571.

For `O=C(Oc1ccc(Br)cc1)N1CCN2CCC1CC2`, the TEAD-luciferase reporter activity is, setting by setting: (compound concentration: 200 nM) inactive: -1.22; (compound concentration: 2 uM) inactive: 1.4; (compound concentration: 10 uM) inactive: 1.47.

In the case of `C#C[C@]1(O)CC[C@H]2[C@@H]3CC[C@H]4Cc5nn(S(C)(=O)=O)cc5C[C@]4(C)[C@H]3CC[C@@]21C` [Zanoterone], the TEAD-luciferase reporter activity is, setting by setting: (compound concentration: 200 nM) inactive: 1.96; (compound concentration: 2 uM) inactive: -0.776; (compound concentration: 10 uM) inactive: 1.52.

Regarding `CC(C)(C)OC(=O)c1ncn2c1[C@@H]1CCCN1C(=O)c1c(Br)cccc1-2` [Bretazenil], the TEAD-luciferase reporter activity is inactive: -2.4 (compound concentration: 200 nM), inactive: 0.327 (compound concentration: 2 uM) and inactive: 1.35 (compound concentration: 10 uM).

Consider `O=C(CS(=O)C(c1ccccc1)c1ccccc1)NO` (stereo unspecified) [adrafinil], for which the TEAD-luciferase reporter activity by setting is: (compound concentration: 200 nM) inactive: 1.01; (compound concentration: 2 uM) inactive: 0.00437; (compound concentration: 10 uM) inactive: 0.952.

Turning to `O=C(N[C@@H]1CN2CCC1CC2)c1cc(Cl)cc2c1O[C@H]1CCCC[C@@H]21`, the TEAD-luciferase reporter activity by setting is: (compound concentration: 200 nM) inactive: -2.15; (compound concentration: 2 uM) inactive: -1.81; (compound concentration: 10 uM) inactive: 0.386.

Turning to `CC(O)(CS(=O)(=O)c1ccc(F)cc1)C(=O)Nc1ccc(C#N)c(C(F)(F)F)c1` (stereo unspecified), the TEAD-luciferase reporter activity reads like this: (compound concentration: 200 nM) inactive: -3.12; (compound concentration: 10 uM) inactive: 1.84.

For `CC(O)(CS(=O)(=O)c1ccc(F)cc1)C(=O)Nc1ccc(C#N)c(C(F)(F)F)c1` (stereo unspecified) [bicalutamide], the TEAD-luciferase reporter activity (compound concentration: 2 uM) was inactive: -0.443.

On to `CC[C@H](C(=O)Oc1c(OC)cc(C)cc1OC)N(CCOC)CCOC`, for which the TEAD-luciferase reporter activity is, setting by setting: (compound concentration: 200 nM) inactive: -0.406; (compound concentration: 2 uM) inactive: -0.448; (compound concentration: 10 uM) inactive: 0.91.

In the case of `C[N@+]12CC[C@H](CC1)C(CN1c3ccccc3Sc3ccccc31)C2` (stereo partly specified), the TEAD-luciferase reporter activity (compound concentration: 200 nM) is inactive: -1.25, the TEAD-luciferase reporter activity (compound concentration: 2 uM) was inactive: -0.244 and the TEAD-luciferase reporter activity (compound concentration: 10 uM) was inactive: 2.05.

On to `CC(=O)NCCCOc1ccc(C(=O)N2CCC(N3C(=O)CCc4ccccc43)CC2)cc1`, for which the TEAD-luciferase reporter activity (compound concentration: 200 nM) is inactive: 0.358, the TEAD-luciferase reporter activity (compound concentration: 2 uM) is inactive: -0.862 and the TEAD-luciferase reporter activity (compound concentration: 10 uM) was inactive: -0.523.

As to `NCc1cc(O)no1` [Muscimol hydrobromide], the TEAD-luciferase reporter activity reads like this: (compound concentration: 200 nM) inactive: -0.507; (compound concentration: 10 uM) inactive: -0.179.

As for `NCc1cc(O)no1` [Muscimol], the TEAD-luciferase reporter activity (compound concentration: 2 uM) was inactive: 1.17.

Turning to `[N-]=[N+]=CC(=O)OC[C@H](N)C(=O)O`, the TEAD-luciferase reporter activity is, setting by setting: (compound concentration: 200 nM) inactive: -1.42; (compound concentration: 2 uM) inactive: 1.86; (compound concentration: 10 uM) inactive: 0.155.

Take `NCCN1C(=O)CN2CCOC2(c2ccccc2F)c2cc(Cl)ccc21` (stereo unspecified): the TEAD-luciferase reporter activity by setting is: (compound concentration: 200 nM) inactive: -0.302; (compound concentration: 2 uM) inactive: -0.759; (compound concentration: 10 uM) inactive: -0.242.

With `CCC(Br)(CC)C(=O)NC(N)=O`, the TEAD-luciferase reporter activity is inactive: 1.55 (compound concentration: 200 nM), inactive: 0.0493 (compound concentration: 2 uM) and inactive: -0.313 (compound concentration: 10 uM).

For the compound `CCCc1cc(O)c2c(c1)OC(C)(C)[C@@H]1CCC(C)=C[C@@H]21`, the TEAD-luciferase reporter activity is, setting by setting: (compound concentration: 200 nM) inactive: -0.785; (compound concentration: 2 uM) inactive: -1.32; (compound concentration: 10 uM) inactive: 0.438.

Consider `CC[C@]12CC[C@H]3[C@@H](CCC4=C[C@@H](O)CC[C@@]43C)[C@@H]1CC[C@@H]2O`, for which the TEAD-luciferase reporter activity reads like this: (compound concentration: 200 nM) inactive: -2.81; (compound concentration: 2 uM) inactive: 0.354; (compound concentration: 10 uM) inactive: 0.999.

`O=C(N/N=C/c1ccc([N+](=O)[O-])o1)c1cc([N+](=O)[O-])cc([N+](=O)[O-])c1O`: the TEAD-luciferase reporter activity is, setting by setting: (compound concentration: 200 nM) inactive: 0.771; (compound concentration: 2 uM) inactive: 2.13; (compound concentration: 10 uM) inactive: 0.0638.

In the case of `CCC1(O)CC(=O)OCc2c1cc1n(c2=O)Cc2cc3ccccc3nc2-1` (stereo unspecified), the TEAD-luciferase reporter activity (compound concentration: 200 nM) is inactive: -2.5, the TEAD-luciferase reporter activity (compound concentration: 2 uM) is inactive: -1.8 and the TEAD-luciferase reporter activity (compound concentration: 10 uM) is inactive: -0.401.

With `O=C(NC1CN2CCC1CC2)c1cc2ccoc2cn1` (stereo unspecified), the TEAD-luciferase reporter activity was inactive: -0.939 (compound concentration: 200 nM), inactive: -0.925 (compound concentration: 2 uM) and inactive: 0.774 (compound concentration: 10 uM).

As to `O=[As][O-]` [Sodium metaarsenite], the TEAD-luciferase reporter activity (compound concentration: 200 nM) was inactive: 0.229, the TEAD-luciferase reporter activity (compound concentration: 2 uM) was inactive: -0.627 and the TEAD-luciferase reporter activity (compound concentration: 10 uM) was inactive: -0.162.

As to `CCCN(CCC)C1CCc2ccc(O)cc2C1` (stereo unspecified), the TEAD-luciferase reporter activity (compound concentration: 200 nM) was inactive: -1.43, the TEAD-luciferase reporter activity (compound concentration: 2 uM) was inactive: -1.79 and the TEAD-luciferase reporter activity (compound concentration: 10 uM) is inactive: -2.02.

For the compound `O=C(O)CCNC(=O)[C@H](Cc1ccc(-c2ccccc2)cc1)NCP(=O)(Oc1ccccc1)Oc1ccccc1`, the TEAD-luciferase reporter activity is inactive: -0.694 (compound concentration: 200 nM), inactive: 0.405 (compound concentration: 2 uM) and inactive: 3.98 (compound concentration: 10 uM).

As for `O=[N+]([O-])[O-]->[Pt+2]1(<-[NH2][C@@H]2CCCC[C@H]2[NH2]->1)<-[O-][N+](=O)[O-]` [Oxaliplatin Related Compound B], the TEAD-luciferase reporter activity reads like this: (compound concentration: 200 nM) inactive: 1.86; (compound concentration: 2 uM) inactive: -0.965; (compound concentration: 10 uM) inactive: 0.65.
